Laboratory results from doi:10.1101/2025.11.07.687155.
No constants are given. Whether binding was seen depends on the method and setting. In cells and extracts the contact can be indirect. Some entries that bind do so weakly or less than the wild type. Each block holds one molecule with its values, some of them ahead of it.

Chains of the proteins cited; added tags and fusions are not shown. Lines headed by an entry give the natural chain unless they say otherwise; changes in a name come on top. A line that says so, or that is headed by a name, gives the form on record, which may keep a tag or linker. Residues count along the entry.
mini-Nesprin2-mTFP (Q8WXH0, form named): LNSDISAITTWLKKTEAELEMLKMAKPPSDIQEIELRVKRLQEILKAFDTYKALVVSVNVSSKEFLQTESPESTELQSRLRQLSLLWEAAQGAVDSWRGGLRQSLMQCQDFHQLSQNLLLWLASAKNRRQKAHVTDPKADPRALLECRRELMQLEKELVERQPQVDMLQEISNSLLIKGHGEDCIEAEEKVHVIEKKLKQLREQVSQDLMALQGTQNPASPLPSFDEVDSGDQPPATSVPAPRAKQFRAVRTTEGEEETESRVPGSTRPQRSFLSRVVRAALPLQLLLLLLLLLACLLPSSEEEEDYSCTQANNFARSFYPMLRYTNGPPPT
UniProt O14656, residues 21-332: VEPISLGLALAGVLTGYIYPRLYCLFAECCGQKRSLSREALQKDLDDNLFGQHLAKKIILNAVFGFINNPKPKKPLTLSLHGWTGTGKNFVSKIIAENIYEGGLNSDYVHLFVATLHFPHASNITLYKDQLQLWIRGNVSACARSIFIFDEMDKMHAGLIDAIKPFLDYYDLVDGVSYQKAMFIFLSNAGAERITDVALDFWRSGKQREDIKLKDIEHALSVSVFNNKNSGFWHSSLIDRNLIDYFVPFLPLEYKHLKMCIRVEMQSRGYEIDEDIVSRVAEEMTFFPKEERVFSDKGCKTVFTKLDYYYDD

Key:
[1] = target: mini-Nesprin2-mTFP (human) (UniProt Q8WXH0); experiment: FRET or BRET
Torsin1A-mTFP (human) = Torsin1A-mTFP (human) (UniProt O14656); experiment: FRET or BRET

binding [1]: binds
Molecule: SUN2-Venus (from UniProt Q9UH99-1 1-717)

binding (Torsin1A-mTFP (human)): binds
B1: Venus-CLCC1 (protein, UniProt Q96S66 19-551)
chain: HDDDWIDPTDMLNYDAASGTMRKSQAKYGISGEKDVSPDLSCADEISECYHKLDSLTYKIDECEKKKREDYESQSNPVFRRYLNKILIEAGKLGLPDENKGDMHYDAEIILKRETLLEIQKFLNGEDWKPGALDDALSDILINFKFHDFETWKWRFEDSFGVDPYNVLMVLLCLLCIVVLVATELWTYVRWYTQLRRVLIISFLFSLGWNWMYLYKLAFAQHQAEVAKMEPLNNVCAKKMDWTGSIWEWFRSSWTYKDDPCQKYYELLLVNPIWLVPPTKALAVTFTTFVTEPLKHIGKGTGEFIKALMKEIPALLHLPVLIIMALAILSFCYGAGKSVHVLRHIGGPESEPPQALRPRDRRRQEEIDYRPDGGAGDADFHYRGQMGPTEQGPYAKTYEGRREILRERDVDLRFQTGNKSPEVLRAFDVPDAEAREHPTVVPSHKSPVLDTKPKETGGILGEGTPKESSTESSQSAKPVSGQDTSGNTEGSPAAEKAQLKSEAAGSPDQGSTYSPARGVAGPRGQDPVSSPCG
